Paper PMC7819943, “Rice protein-binding microarrays: a tool to detect cis-acting elements near promoter regions in rice”
Some of the results follow.

Sequences of proteins named here, by UniProt entry; tags and fusion partners are left off.
UniProt Q0JBA9, entry or part of it: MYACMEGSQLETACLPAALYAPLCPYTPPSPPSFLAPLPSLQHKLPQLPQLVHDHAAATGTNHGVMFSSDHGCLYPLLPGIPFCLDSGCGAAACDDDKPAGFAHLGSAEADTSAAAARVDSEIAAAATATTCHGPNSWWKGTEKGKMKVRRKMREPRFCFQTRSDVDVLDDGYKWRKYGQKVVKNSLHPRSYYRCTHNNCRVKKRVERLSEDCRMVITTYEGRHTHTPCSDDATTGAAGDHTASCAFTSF

These sequences were tested against OsWRKY34 (Oryza sativa, UniProt Q0JBA9 1-250) (assay: protein-binding microarray (RPBM); PBS, 2% BSA, 51.3 ng/ul salmon testes DNA, 50 uM zinc acetate, 200 nM TF, 25 C, 1 h; high values mean tight binding). Details: protein: recombinant; tags: N-terminal polyhistidine and DsRed monomer fusion (pET32a); label: CyDye5-dUTP incorporated in the synthesized complementary strand; 3' TTTTT single-stranded linker to array surface; dsDNA, one strand shown.
Method in brief: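 Per-feature fluorescence intensity (arbitrary units), read on an Axon 4000B scanner, is the binding signal. Transcription factors carrying an N-terminal polyhistidine tag and DsRed fusion were expressed in E. coli BL21-CodonPlus and purified on Ni–NTA. A custom Agilent array, made double-stranded by primer extension with Cy5-dUTP and blocked with 2% BSA, was incubated with 200 nM protein in PBS, 2% BSA, salmon testes DNA and 50 µM zinc acetate at 25 °C for 1 h and then washed.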

Row | Sequence | binding signal
1 | TGTCTTGCACCACTCATTTCATATGGCCCTGCACTACGAGCGGAGTCACCTAGTGCAG | 9370 fluorescence intensity (a.u.)
2 | GGTCATAATTTAGCTCAATCTGCTGTTTGGTTCATTGGTTCGGAGTCACCTAGTGCAG | 9400 fluorescence intensity (a.u.)
3 | ATGTTTTGTTTGTCAATGGCTTGTACTGGATAGAGAGGGGCGGAGTCACCTAGTGCAG | 8780 fluorescence intensity (a.u.)
4 | TAACCACATTGCACGCACACATTCCATACGTAAACTTGAACGGAGTCACCTAGTGCAG | 9090 fluorescence intensity (a.u.)
5 | GGAGGGTTAGATCACCAGGGGCGGGTTGATGCAAAAAATTCGGAGTCACCTAGTGCAG | 17000 fluorescence intensity (a.u.)
6 | CCTGCCGCTGGCGGTCTGGCGCTGGGGAGGGGATGGATGCCGGAGTCACCTAGTGCAG | 8040 fluorescence intensity (a.u.)
7 | CAGAGGAATAGTGCATCTCTCTCTGGTGTTTTTTTGTTTTCGGAGTCACCTAGTGCAG | 10600 fluorescence intensity (a.u.)
8 | AATTTGATTTCCTCTTCTTTTGTTGCTTAATTTCAGTCTCCGGAGTCACCTAGTGCAG | 8340 fluorescence intensity (a.u.)
9 | TAATTGCTTGTTACTGGCAGTCGGTCCTCGATTATTTAACCGGAGTCACCTAGTGCAG | 8930 fluorescence intensity (a.u.)
10 | GCTCTCGCTCGCTCGCTCTCTCGCTCGCTGCTCCCAAATGCGGAGTCACCTAGTGCAG | 10100 fluorescence intensity (a.u.)
11 | CAATTTGATCCCTTCCATGCCCCTACCGTTACATTTTTCCCGGAGTCACCTAGTGCAG | 8520 fluorescence intensity (a.u.)
12 | GTGCTTGTGTAAATTGGTACTTCATCATTACTATATATTTCGGAGTCACCTAGTGCAG | 9110 fluorescence intensity (a.u.)
13 | CTCCACTCCATCTCCATGACTCCATCGGTCCATGGACTGGCGGAGTCACCTAGTGCAG | 8410 fluorescence intensity (a.u.)
14 | GCACCCCACTTATTGCTCTCTCTCCTCTTCTTTTTCTTCCCGGAGTCACCTAGTGCAG | 10900 fluorescence intensity (a.u.)
15 | GTTATTTATGCTTCTCAGTTACCTAAACCAATATAATTTCCGGAGTCACCTAGTGCAG | 8480 fluorescence intensity (a.u.)
16 | GCTTGCGCGCGTCCTTCCAGTCGCACCAACTGGTTCCAATCGGAGTCACCTAGTGCAG | 9890 fluorescence intensity (a.u.)
17 | CACACTATCACCGCGACACCAGCTTTCTCCTCCGCAGGCACGGAGTCACCTAGTGCAG | 8900 fluorescence intensity (a.u.)
18 | CACATTTCTCCTGCACGACTGCCTGGCCCATGCCCTCTCTCGGAGTCACCTAGTGCAG | 8820 fluorescence intensity (a.u.)
19 | AAATATTCTCCGCTGTTTCTTCCGTGAACTTCGTCCATGCCGGAGTCACCTAGTGCAG | 8380 fluorescence intensity (a.u.)
20 | GCCTTTTGACCAACCCATTCGTCCGGCACCCGTCCCGGCCCGGAGTCACCTAGTGCAG | 8510 fluorescence intensity (a.u.)
21 | CATCTCATCTGCGCTGTTCTTGTTGCTGTTGCTGTTCAATCGGAGTCACCTAGTGCAG | 15000 fluorescence intensity (a.u.)
22 | CCTCAATACCATTGACAGCACACCGCTCTCTAGACCCTACCGGAGTCACCTAGTGCAG | 9070 fluorescence intensity (a.u.)
23 | GGTGGGCGGGCGGGAAATATCCGCCCCGTTTTCACCCTAGCGGAGTCACCTAGTGCAG | 8020 fluorescence intensity (a.u.)
24 | GTCCATGCCACACACGTCGCGTCCCATGTCGTCATGCCTCCGGAGTCACCTAGTGCAG | 9710 fluorescence intensity (a.u.)
25 | TAGTCTTCTGTCATCGTCGACCGTCAAGTGTGTCTCTCGCCGGAGTCACCTAGTGCAG | 15700 fluorescence intensity (a.u.)
26 | ACCACCACCGGCCGGTCTCCTTTCTGCTTGCCTCGCTCTCCGGAGTCACCTAGTGCAG | 11100 fluorescence intensity (a.u.)
27 | TATATCTCGTGGTTTGTGGGTTCTTTTCACTTGTTCAGTGCGGAGTCACCTAGTGCAG | 14000 fluorescence intensity (a.u.)

Row | Sequence | binding signal
28 | GTAAAACTGAATAAGTGGGTGGGTATCTGTCGCTTTGCTTCGGAGTCACCTAGTGCAG | 9200 fluorescence intensity (a.u.)
29 | ACTCATGTTTGTTATAACTCACAACCATTTTTAGTTTTCCCGGAGTCACCTAGTGCAG | 9560 fluorescence intensity (a.u.)
30 | GAATTATTAGGGAGAAAGGAGTTGCAGGGTGGGGATTGTTCGGAGTCACCTAGTGCAG | 8330 fluorescence intensity (a.u.)
31 | TTGGTTTATTAGGTTTTGTTTCTCGTTCTCATCACTAAGACGGAGTCACCTAGTGCAG | 10700 fluorescence intensity (a.u.)
32 | TCGATTACGATCTCGTCAGTACCATATATTTCGACTACTCCGGAGTCACCTAGTGCAG | 10100 fluorescence intensity (a.u.)
33 | CATGGTGCCCTTGATTCATCGATCGTCACAGCCAAGGTGACGGAGTCACCTAGTGCAG | 8780 fluorescence intensity (a.u.)
34 | CTTCCACCTGTCTGCTATTTGTTGGTGAGAATTTTAAAAACGGAGTCACCTAGTGCAG | 8710 fluorescence intensity (a.u.)
35 | GCTTGCTCGCGCTCCACTGCTCGGCCCGCCGCCGCGCTCGCGGAGTCACCTAGTGCAG | 8780 fluorescence intensity (a.u.)
36 | CTCGTCTCTTCGTTCGTTCCTAGGTCCAAGTACCACCTCACGGAGTCACCTAGTGCAG | 10300 fluorescence intensity (a.u.)
37 | GGTATGTCTGAATTTTTCGCATCATCTACAGTGCCTAAACCGGAGTCACCTAGTGCAG | 9340 fluorescence intensity (a.u.)
38 | ATGGTTTACATTTTCAGCTTTTGCCTGTTGGCCGGTATACCGGAGTCACCTAGTGCAG | 8880 fluorescence intensity (a.u.)
39 | AGCTATCCATCCACTCCTTCCCCATACCACAACCGATTCACGGAGTCACCTAGTGCAG | 9680 fluorescence intensity (a.u.)
40 | GTTGAGTTGTGTGTGAGGCGTTATAATATGTGGGACCGGGCGGAGTCACCTAGTGCAG | 8210 fluorescence intensity (a.u.)
41 | CGCTTCACTTCCCCACTAGCCACAAGGCCCACAACCCAACCGGAGTCACCTAGTGCAG | 10000 fluorescence intensity (a.u.)
42 | TCTCTCTCTCTCTCTCTCTCGCTCTGACACACTTGACACTCGGAGTCACCTAGTGCAG | 9320 fluorescence intensity (a.u.)
43 | ACTCCCTCCGTTTCAAAATGTTTGACACCGTTGACTTTTTCGGAGTCACCTAGTGCAG | 18500 fluorescence intensity (a.u.)
44 | GCAACGCTCCATTTCAAAGAAAATCATTCAGTATTTGCCTCGGAGTCACCTAGTGCAG | 8170 fluorescence intensity (a.u.)
45 | TTTATTGGACTATGGATGGGATACTAACATTTCTTTTCTTCGGAGTCACCTAGTGCAG | 8900 fluorescence intensity (a.u.)
46 | GTGATGTTTTGTGAATGGGGATGATTTGTTGTTGAGTTCGCGGAGTCACCTAGTGCAG | 9900 fluorescence intensity (a.u.)
47 | ATTGTGTATGCCATTTTATTCATATATGATTTCCGTGTTGCGGAGTCACCTAGTGCAG | 8150 fluorescence intensity (a.u.)
48 | GATTCATCGATCTTTTACGAGTACTATTTTTGTGATTATTCGGAGTCACCTAGTGCAG | 11300 fluorescence intensity (a.u.)
49 | TCGTTTCGTTTCGTTTTGGGAATTGCGAGGCACCTCTCTTCGGAGTCACCTAGTGCAG | 8670 fluorescence intensity (a.u.)
50 | GCGATCACGCTCGGCAACCACCTGCGCAACTTCACCACCCCGGAGTCACCTAGTGCAG | 8050 fluorescence intensity (a.u.)
51 | CACCTCGCCCGGCCCAACCCCAGCTAATCGCGATCAAACGCGGAGTCACCTAGTGCAG | 8790 fluorescence intensity (a.u.)
52 | GATCCCACGGCATTTAGGCCCTGTTTGTTCACACCAAACTCGGAGTCACCTAGTGCAG | 8590 fluorescence intensity (a.u.)
53 | CGTATTGAAAAAAACGGATCTACCGTTGACTTTGGACAAACGGAGTCACCTAGTGCAG | 11000 fluorescence intensity (a.u.)
54 | CTGATGATCTATGGCATCGACGGGGCCCACTTTTCTCGAACGGAGTCACCTAGTGCAG | 8700 fluorescence intensity (a.u.)

Excerpt: nos. 43–46
Row | Sequence | binding signal
43 | ACTCCCTCCGTTTCAAAATGTTTGACACCGTTGACTTTTTCGGAGTCACCTAGTGCAG | 18500 fluorescence intensity (a.u.)
44 | GCAACGCTCCATTTCAAAGAAAATCATTCAGTATTTGCCTCGGAGTCACCTAGTGCAG | 8170 fluorescence intensity (a.u.)
45 | TTTATTGGACTATGGATGGGATACTAACATTTCTTTTCTTCGGAGTCACCTAGTGCAG | 8900 fluorescence intensity (a.u.)
46 | GTGATGTTTTGTGAATGGGGATGATTTGTTGTTGAGTTCGCGGAGTCACCTAGTGCAG | 9900 fluorescence intensity (a.u.)
